In the supplement of paper PMC3334620:
Over roughly 33,000 sequences, “E-score (-0.5 to 0.5)” has its median near -0.0014; the highest 2% begin near 0.25. The list shows a part of the results.

Molecular target: T1, Cad1 (UniProt P24813)
T1 sequence: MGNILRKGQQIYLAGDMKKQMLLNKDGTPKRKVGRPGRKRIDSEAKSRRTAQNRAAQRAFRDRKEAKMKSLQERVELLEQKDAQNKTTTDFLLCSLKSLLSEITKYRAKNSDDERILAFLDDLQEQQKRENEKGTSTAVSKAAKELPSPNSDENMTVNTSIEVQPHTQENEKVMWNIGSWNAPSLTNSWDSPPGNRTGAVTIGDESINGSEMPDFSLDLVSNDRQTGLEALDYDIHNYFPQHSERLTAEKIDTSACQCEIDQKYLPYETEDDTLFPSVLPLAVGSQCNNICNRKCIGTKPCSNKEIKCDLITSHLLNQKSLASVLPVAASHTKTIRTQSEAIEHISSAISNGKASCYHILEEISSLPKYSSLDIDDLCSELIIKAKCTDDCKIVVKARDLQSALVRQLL
Experiment: PBM E-score (8-mer binding enrichment) (E-score (-0.5 to 0.5)); higher = stronger / more preferred TF binding
Details: protein concentration: 100 nM; construct: GST-full length
Procedure, shortened: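 The E-score, a modified Wilcoxon-Mann-Whitney statistic, was computed by the Universal PBM Analysis Suite for every ungapped eight-base word pooled with its reverse complement. Scans behind it were normalised with masliner after bound GST-tagged yeast transcription factors were detected with fluorescent anti-GST. The proteins, at about 100-200 nM, had been applied to universal all-10-mer Agilent arrays made double-stranded by primer extension.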

First: GTGGGCTA
Second: AGAAGTCG
The “PBM E-score” value of the first is higher: -0.0266 for the first, -0.0485 for the second.

First: CATGTCTA
Second: ATTGACGA
The “PBM E-score” value of the first is lower: -0.139 for the first, 0.0925 for the second.

Going from ATGCAAAC to GTCAGAGA, the “PBM E-score” value falls from 0.0079 to -0.0855.

First: TTATGGAA
Second: CCCATAAA
The “PBM E-score” value of the first is higher: -0.0749 for the first, -0.0945 for the second.

First: CAGCCTGA
Second: ACTTTTAC
The “PBM E-score” value of the first is lower: -0.131 for the first, 0.197 for the second.

First: GAGTCCCC
Second: ATCCAATC
The “PBM E-score” value of the first is lower: -0.229 for the first, -0.0344 for the second.

Compared with ACTTAGAA, AGCACGGC is higher in “PBM E-score” value: -0.0161 for the first, 0.0913 for the second.

Compared with ACAGGAGT, TACGCTGA is higher in “PBM E-score” value: -0.0278 for the first, 0.275 for the second.

First: GAGCAGGC
Second: AGCCCCGA
The “PBM E-score” value of the first is higher: -0.0138 for the first, -0.153 for the second.

Going from ATCATAAG to TAGGCCAA, the “PBM E-score” value falls from 0.0855 to 0.0604.

Going from GTGGGTAA to GACAGGCA, the “PBM E-score” value rises from -0.136 to -0.13.

First: ACTGAAGT
Second: ATTCGATC
The “PBM E-score” value of the first is lower: -0.0257 for the first, 0.0616 for the second.

Compared with GGTATAGA, AAAGTATT is higher in “PBM E-score” value: -0.0165 for the first, 0.0404 for the second.

Going from CGGTGTAA to CACGCGCC, the “PBM E-score” value rises from -0.0121 to 0.0308.

Compared with AAACCTTG, TCCATCAA is higher in “PBM E-score” value: -0.115 for the first, 0.0278 for the second.

Compared with GGAGGTGA, CGTAGGAG is lower in “PBM E-score” value: 0.0201 for the first, -0.0583 for the second.

Going from ACTGGTCC to ATAACTAA, the “PBM E-score” value rises from -0.117 to 0.146.

Going from CACGTCAG to ATGTTTAC, the “PBM E-score” value rises from 0.0462 to 0.121.

First: AAGTATCT
Second: GCGCAGAA
The “PBM E-score” value of the first is lower: -0.0194 for the first, 0.262 for the second.

First: AGTCAACC
Second: GATGCTTA
The “PBM E-score” value of the first is higher: -0.128 for the first, -0.168 for the second.

Going from GGCTGCAC to GGCATTAA, the “PBM E-score” value falls from 0.0227 to -0.0935.

Going from ATAATAAT to ACATTCGA, the “PBM E-score” value falls from 0.161 to -0.0398.

Compared with ACCCCCGC, AGCAGGAT is higher in “PBM E-score” value: -0.238 for the first, 0.0257 for the second.

Going from CGCTCAAC to GGGATATA, the “PBM E-score” value falls from 0.103 to -0.0288.

First: AGCCGGGC
Second: GAACAGAC
The “PBM E-score” value of the first is lower: -0.068 for the first, 0.0866 for the second.

First: GTTGGGAA
Second: CCGTCGCG
The “PBM E-score” value of the first is lower: 0.024 for the first, 0.0507 for the second.

First: AAATTTGT
Second: AGGAAGAT
The “PBM E-score” value of the first is higher: 0.277 for the first, -0.00586 for the second.

First: GAGAAGAC
Second: ATTCCGTG
The “PBM E-score” value of the first is lower: -0.125 for the first, 0.173 for the second.

Compared with ACTATCTA, CAGAAGAG is lower in “PBM E-score” value: 0.224 for the first, -0.107 for the second.

Compared with CCGAGAGG, GTTCGGGA is higher in “PBM E-score” value: -0.222 for the first, 0.166 for the second.

Going from CAGCCTCG to GAGCAAGA, the “PBM E-score” value falls from 0.207 to -0.0134.

First: GGTGTTTA
Second: GTGAGATA
The “PBM E-score” value of the first is higher: 0.00798 for the first, -0.0227 for the second.

Going from CCTGCCCG to AGAATGTG, the “PBM E-score” value rises from -0.0347 to 0.0352.

Compared with CGTACAAA, AGACTAAA is lower in “PBM E-score” value: 0.188 for the first, -0.00769 for the second.

Going from CACGCCAG to ATCCGAGC, the “PBM E-score” value rises from -0.077 to -0.0221.

First: CCACGAAG
Second: CCGTGCCG
The “PBM E-score” value of the first is lower: -0.129 for the first, -0.0563 for the second.

Going from CTTTACCA to ACTTGTTA, the “PBM E-score” value falls from 0.00321 to -0.0872.

Compared with ACCCGCAA, CGAACCTA is higher in “PBM E-score” value: -0.284 for the first, -0.0293 for the second.

Compared with ATCTTCTC, CTGCGCAG is lower in “PBM E-score” value: -0.0637 for the first, -0.16 for the second.

Compared with CCTGGATC, CTCACGCA is higher in “PBM E-score” value: -0.142 for the first, 0.208 for the second.

Compared with CCATGCCC, CTGGGCCA is higher in “PBM E-score” value: -0.277 for the first, -0.173 for the second.

Compared with ATTATAAC, AGATCCGC is lower in “PBM E-score” value: 0.0512 for the first, -0.0043 for the second.

Going from CAGCACAG to CAACGATA, the “PBM E-score” value rises from 0.17 to 0.174.

Compared with ATGCCAAC, AAATCTAG is higher in “PBM E-score” value: -0.027 for the first, 0.0389 for the second.

Compared with GTGTTAGA, GCGACTGA is lower in “PBM E-score” value: 0.0752 for the first, -0.0289 for the second.

First: AGGAGTCG
Second: CACAGCGG
The “PBM E-score” value of the first is lower: -0.219 for the first, -0.0663 for the second.

Going from AATAGGGA to GAACAATA, the “PBM E-score” value rises from -0.0788 to 0.199.

Compared with GCTGGCAA, ATTAGTGC is higher in “PBM E-score” value: 0.0981 for the first, 0.353 for the second.

Going from TCAGGCGA to ATCTACGC, the “PBM E-score” value rises from -0.0232 to 0.102.

Compared with CAAGAATA, CATACTGC is lower in “PBM E-score” value: 0.161 for the first, 0.00867 for the second.

First: CCCTACCG
Second: CAGGCGGG
The “PBM E-score” value of the first is higher: -0.112 for the first, -0.153 for the second.

Going from TGGTAGAA to TAAAAGAA, the “PBM E-score” value rises from 0.0454 to 0.0891.

Going from GTTCAAAC to ATGAAGAG, the “PBM E-score” value rises from 0.0152 to 0.0613.

First: AACAGTCA
Second: ACAGTCAT
The “PBM E-score” value of the first is higher: 0.0298 for the first, -0.0411 for the second.

Compared with ACCGCTCC, CGGTAACC is higher in “PBM E-score” value: -0.124 for the first, -0.0228 for the second.

Compared with AGTGGCAC, ATGACTCA is higher in “PBM E-score” value: -0.148 for the first, 0.195 for the second.

First: AAGTGAGG
Second: CTTCGAAA
The “PBM E-score” value of the first is lower: -0.149 for the first, -0.0423 for the second.

Going from ACTGTCAT to AGATTTAC, the “PBM E-score” value falls from 0.0949 to 0.0822.

Going from GAACCTGC to AAGCCGTC, the “PBM E-score” value rises from -0.018 to 0.0241.

Going from ATGGTACC to AAACAGGC, the “PBM E-score” value falls from -0.0348 to -0.0715.

First: GGAGAGAA
Second: AAGAACAA
The “PBM E-score” value of the first is lower: -0.207 for the first, 0.217 for the second.

Going from CACAACGG to CATGGCCG, the “PBM E-score” value rises from -0.109 to -0.0819.

Compared with CTTCGATC, TGCACACA is higher in “PBM E-score” value: -0.00496 for the first, 0.0945 for the second.

Going from ATGGAAGG to CCTTGAGC, the “PBM E-score” value rises from -0.204 to -0.0881.

Going from GATCCGTA to AAAACACA, the “PBM E-score” value rises from -0.0959 to 0.0947.

Going from AAAAAAAG to TGGGCTAA, the “PBM E-score” value falls from 0.0283 to -0.0882.

First: CCTCGGCG
Second: AACGGTCG
The “PBM E-score” value of the first is higher: 0.0729 for the first, 0.0263 for the second.

First: AAGTCGAC
Second: AGGAGCCC
The “PBM E-score” value of the first is higher: 0.256 for the first, -0.0882 for the second.

Compared with GATGAAAA, CTTCAACA is lower in “PBM E-score” value: 0.172 for the first, 0.15 for the second.

Compared with AAATGCTC, CTTCTTAA is higher in “PBM E-score” value: -0.0562 for the first, 0.116 for the second.

First: AGGGCGCG
Second: AGCAATTC
The “PBM E-score” value of the first is lower: -0.143 for the first, 0.0611 for the second.

First: CCTCAGTC
Second: CCACCATC
The “PBM E-score” value of the first is higher: -0.157 for the first, -0.291 for the second.

Going from AAACTCAG to CGCCCGAA, the “PBM E-score” value falls from -0.00451 to -0.0571.

Compared with ATTCCATA, CGATTTAC is lower in “PBM E-score” value: 0.0418 for the first, -0.0171 for the second.

Going from AATGTTTA to ATTACCCA, the “PBM E-score” value rises from -0.00152 to 0.103.

Going from TCTTATCA to ACTAGGTC, the “PBM E-score” value falls from 0.267 to -0.129.

Going from GATCGCCC to ACAAGCTA, the “PBM E-score” value falls from 0.0373 to -0.0357.

First: CGACGGCC
Second: ACGAGCCG
The “PBM E-score” value of the first is lower: 0.0302 for the first, 0.0438 for the second.

Going from AGGAATTC to AAAACGCT, the “PBM E-score” value rises from -0.11 to -0.0644.

Going from ACCGTCCA to CAACTATA, the “PBM E-score” value falls from 0.00248 to -0.0552.

First: ACGGGGTG
Second: TGAATTAA
The “PBM E-score” value of the first is lower: -0.018 for the first, 0.139 for the second.

Going from AGATTGGG to CCTTCACC, the “PBM E-score” value falls from 0.0333 to -0.263.

First: ACGTCAAT
Second: AAAATTTC
The “PBM E-score” value of the first is lower: -0.0902 for the first, 0.204 for the second.

First: ATGCAGCA
Second: CAACGGTG
The “PBM E-score” value of the first is higher: 0.187 for the first, -0.164 for the second.

Compared with CACCGCGA, GTCCTGCA is lower in “PBM E-score” value: 0.0204 for the first, -0.184 for the second.

Compared with ACATTTCG, ATGGTCCG is higher in “PBM E-score” value: -0.082 for the first, 0.155 for the second.
